For at least one compound, name, drawing or mass did not settle the structure.
Test system: in vitro derived adult pluripotent stem cells (“NUCREM™ cells”)
Experiment: Retinoic acid induced differentiation of in vitro derived adult pluripotent stem cells (morphology)
Format: cell-based, human
Conditions: approximately 1-2 μM retinoic acid, after three days
Method: Subsequent to cyclin B treatment, the cultures of in vitro derived adult pluripotent stem cells were cultured in the presence of approximately 1-2 μM retinoic acid (“RA”) (Sigma, St. Louis) for five (5) to 10 days. […] By day five (5) of retinoic acid treatment, approximately 50% of the cells in culture attained a neuron-like morphology (FIG. 1). At day five of RA treatment (treatment regimen 3), RNA was extracted from the cultures for RT-PCR analysis.

## CC1=C(/C=C/C(C)=C/C=C/C(C)=C/C(=O)O)C(C)(C)CCC1 [retinoic acid]
  cell morphology: cells began to sprout extensions that closely resembled neurites

Reference: US20040120932A1, “In vitro-derived adult pluripotent stem cells and uses therefor” (priority 2000, published 2004)
